The source of these data is article doi:10.1101/2021.03.01.433469.

The chains behind the UniProt entries cited, without tags or fusion partners.
UniProt Q9NFU0: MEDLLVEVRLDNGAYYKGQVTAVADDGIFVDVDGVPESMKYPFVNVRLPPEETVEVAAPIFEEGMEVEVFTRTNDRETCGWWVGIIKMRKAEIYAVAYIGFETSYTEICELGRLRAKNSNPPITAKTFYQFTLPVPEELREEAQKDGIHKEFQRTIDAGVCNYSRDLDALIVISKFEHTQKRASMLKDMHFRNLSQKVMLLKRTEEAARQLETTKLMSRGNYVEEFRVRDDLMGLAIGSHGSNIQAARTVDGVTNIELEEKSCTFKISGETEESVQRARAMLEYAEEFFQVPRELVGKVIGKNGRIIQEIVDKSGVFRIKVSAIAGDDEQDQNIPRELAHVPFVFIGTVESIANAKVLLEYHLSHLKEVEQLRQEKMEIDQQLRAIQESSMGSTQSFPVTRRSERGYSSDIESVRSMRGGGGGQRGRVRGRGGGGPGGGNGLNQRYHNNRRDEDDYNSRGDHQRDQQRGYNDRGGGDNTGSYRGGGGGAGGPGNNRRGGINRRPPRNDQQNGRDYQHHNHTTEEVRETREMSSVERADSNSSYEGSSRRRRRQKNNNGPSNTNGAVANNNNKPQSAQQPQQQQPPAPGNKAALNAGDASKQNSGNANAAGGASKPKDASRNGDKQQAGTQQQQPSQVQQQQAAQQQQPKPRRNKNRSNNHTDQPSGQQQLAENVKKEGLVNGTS

Read-outs that look alike come from different tables or passages of the source. These are yes or no findings as the source states them, for the method shown. In cells and extracts the contact can be indirect. A result given as binding can be weak or reduced; the word gives no strength.

Experiment [1] addresses Drosophila melanogaster Nab2, FLAG-tagged transgene (UAS-Nab2-FLAG) (Drosophila melanogaster) (UniProt Q9V3H9). Kind of experiment: co-IP.
Experiment [2] shares this target. Kind of experiment: co-IP. This is another data set of the same source.

Regarding “Drosophila Fmr1 (from UniProt Q9NFU0 1-684)”, the binding entry in experiment [1] is reported as “binds”.

B1: Drosophila Ataxin-2 (Atx2) (protein, UniProt Q8SWR8 1-1084)
chain: MNNNSKRKTRPTGGGASGGISRYNSNDNSLRPTNNKAGAGGGNGGAAVRPSAQGVYNNTFFMHSATALVGSVVEVRLRSGNIYEGVFRTFSGNFDIALELPACIKSKNLPEEGKVPKHIIFPADTVVTIVAKDFDSQYATAGAFQTDGAISDKCNGARPDEKELEPWDSGANGDIDIELDSAANGWDPNEMFRKNENTFGVTSTFDDSLASYTVPLDKGDSLEFKEAEAKAEKLAAEIENNPTCRDRLDLENGDEEALFAAVERPSTEQDQRGDRGDRERNDRDREREERDRDRDRDRGNKPRGAGDFQLRETMSSDRYITKQTRSITGPQLSHVGMSSQGSGRDRDTRGDGSMMMQSGGGSGQGGSTQSTAALMLAGGLKGVGPAPSANASADSSSKYSGGSMVKRKTVPQGGKVMRNNVPTGGSNVSVSQGGNGNSVGQNKGGYQPSMGMPSQYSYQGNSQIMHGSSQYRNQSHMGGANKLNGDSNANTNKPLPQRQMRQYQGSQSNSSLNYGGEPQSLGKPVHGSHGGHPGQNSNSPPLQTAGPQQQQQQQQQQQQQQQQQQPPQQQQHQNIQPQGQNTQPARQVRTRDNQMQELRQFGQDFQLAPSNTSPPQQQQQQQQQQQQHQVQQQQQRALQQSASPPQQQQQQQQQQQHVVLHQVPQTHLHQAALSQPHYVPQQQPQQAPLPQQQHVPHHMQQKAQQQQLVETQHQHVQKQHQSQPQVQQPPPQLLQDPSQQPLPIYHTMPPPQTSPVVVTSPVLLEQPPPQPMPVVQQQQTQQLATPKPEVSPAPPSSNTTTPTGIASTPTAGVIASAGSEKTTPAAPTPTSNSATVPTGTAATAGGATGTTPVVKKHVLNPSAKPFTPRGPSTPNPSRPHTPQTPVPMTNIYTTTGGHVPPAANQPIYVMQPQHPFPPQTHPQAGQPPRLRRSNYPPMAASQMHVSASAATGQPLITAGPIPQFIQYGHAPHQQQFQSHTYAPMQMRVYPDQPQQLQFMTQTPQSTTPSPGQPHQQFHPPPQPSPAGGGPQPAFTPPTQAATYQLMCVHPQSLLANHYFPPPTPQHPQQNQQQYQIVMQQHQPQ
B1: the binding entry in experiment [2] is listed as “binds weakly”.
